Measured values from the supplement of paper PMC8728848.
Some of the results follow.

Assays:
Assay in all cases: glycan array binding signal (z-score within array); higher = stronger binding
Settings in all cases: glycan notation: IUPAC condensed, linker removed
[1] = target: Fuc(a1-2)[Gal(a1-3)]Gal(b1-4)GlcNAc(b1-2)Man(a1-3)[Fuc(a1-2)[Gal(a1-3)]Gal(b1-4)GlcNAc(b1-2)Man(a1-6)]Man(b1-4)GlcNAc(b1-4)GlcNAc
Procedure, shortened: (§1)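 Glycan array data were curated from 3228 arrays in the Consortium for Functional Glycomics database and kept only where the protein sequence was available. Glycan names were converted to IUPAC-condensed notation, and columns mapping to the same glycan were averaged. The binding signal is a within-array Z-score, averaged across arrays of the same protein sequence at different concentrations or buffers and across linkers. Negative Z-scores can be read as non-binding.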

[2] = target: Fuc(a1-2)[Gal(a1-3)]Gal(b1-4)GlcNAc(b1-2)Man(a1-3)[Fuc(a1-2)[Gal(a1-3)]Gal(b1-4)GlcNAc(b1-2)Man(a1-6)]Man(b1-4)GlcNAc(b1-4)[Fuc(a1-6)]GlcNAc
Procedure, shortened: as §1

[3] = target: Fuc(a1-2)[Gal(a1-3)]Gal(b1-4)GlcNAc(b1-3)GalNAc
Procedure, shortened: as §1

[4] = target: Fuc(a1-2)[Gal(a1-3)]Gal(b1-4)GlcNAc(b1-3)[Fuc(a1-2)[Gal(a1-3)]Gal(b1-4)GlcNAc(b1-6)]GalNAc
Procedure, shortened: as §1

[5] = target: Fuc(a1-2)[Gal(a1-3)]Gal(b1-4)GlcNAc(b1-6)GalNAc
Procedure, shortened: as §1

[6] = target: Fuc(a1-2)[Gal(a1-3)]Gal(b1-4)[Fuc(a1-3)]Glc
Procedure, shortened: as §1

[7] = target: Fuc(a1-2)[Gal(a1-3)]Gal(b1-4)[Fuc(a1-3)]GlcNAc
Procedure, shortened: as §1

[8] = target: Fuc(a1-2)[Gal(a1-3)]Gal(b1-4)[Fuc(a1-3)]GlcNAc(b1-3)GalNAc
Procedure, shortened: as §1

[9] = target: Fuc(a1-2)[Gal(a1-4)]Gal(b1-4)GlcNAc
Procedure, shortened: as §1

[10] = target: Fuc(a1-2)[GalNAc(a1-3)]Gal
Procedure, shortened: as §1

[11] = target: Fuc(a1-2)[GalNAc(a1-3)]Gal(b1-3)GalNAc(a1-3)[Fuc(a1-2)]Gal(b1-4)GlcNAc
Procedure, shortened: as §1

[12] = target: Fuc(a1-2)[GalNAc(a1-3)]Gal(b1-3)GalNAc(b1-3)Gal(a1-4)Gal(b1-4)Glc
Procedure, shortened: as §1

[13] = target: Fuc(a1-2)[GalNAc(a1-3)]Gal(b1-3)GlcNAc
Procedure, shortened: as §1

[14] = target: Fuc(a1-2)[GalNAc(a1-3)]Gal(b1-3)GlcNAc(b1-2)Man(a1-3)[Fuc(a1-2)[GalNAc(a1-3)]Gal(b1-3)GlcNAc(b1-2)Man(a1-6)]Man(b1-4)GlcNAc(b1-4)GlcNAc
Procedure, shortened: as §1

[15] = target: Fuc(a1-2)[GalNAc(a1-3)]Gal(b1-3)GlcNAc(b1-2)Man(a1-3)[Fuc(a1-2)[GalNAc(a1-3)]Gal(b1-3)GlcNAc(b1-2)Man(a1-6)]Man(b1-4)GlcNAc(b1-4)[Fuc(a1-6)]GlcNAc
Procedure, shortened: as §1

[16] = target: Fuc(a1-2)[GalNAc(a1-3)]Gal(b1-3)GlcNAc(b1-3)GalNAc
Procedure, shortened: as §1

[17] = target: Fuc(a1-2)[GalNAc(a1-3)]Gal(b1-3)GlcNAc(b1-6)GalNAc
Procedure, shortened: as §1

[18] = target: Fuc(a1-2)[GalNAc(a1-3)]Gal(b1-4)Glc
Procedure, shortened: as §1

[19] = target: Fuc(a1-2)[GalNAc(a1-3)]Gal(b1-4)GlcNAc
Procedure, shortened: as §1

[20] = target: Fuc(a1-2)[GalNAc(a1-3)]Gal(b1-4)GlcNAc(b1-2)Man
Procedure, shortened: as §1

[21] = target: Fuc(a1-2)[GalNAc(a1-3)]Gal(b1-4)GlcNAc(b1-2)Man(a1-3)[Fuc(a1-2)[GalNAc(a1-3)]Gal(b1-4)GlcNAc(b1-2)Man(a1-6)]Man(b1-4)GlcNAc(b1-4)GlcNAc
Procedure, shortened: as §1

[22] = target: Fuc(a1-2)[GalNAc(a1-3)]Gal(b1-4)GlcNAc(b1-2)Man(a1-3)[Fuc(a1-2)[GalNAc(a1-3)]Gal(b1-4)GlcNAc(b1-2)Man(a1-6)]Man(b1-4)GlcNAc(b1-4)[Fuc(a1-6)]GlcNAc
Procedure, shortened: as §1

[23] = target: Fuc(a1-2)[GalNAc(a1-3)]Gal(b1-4)GlcNAc(b1-3)Gal(b1-4)GlcNAc
Procedure, shortened: as §1

[24] = target: Fuc(a1-2)[GalNAc(a1-3)]Gal(b1-4)GlcNAc(b1-3)Gal(b1-4)GlcNAc(b1-3)Gal(b1-4)GlcNAc
Procedure, shortened: as §1

[25] = target: Fuc(a1-2)[GalNAc(a1-3)]Gal(b1-4)GlcNAc(b1-3)GalNAc
Procedure, shortened: as §1

[26] = target: Fuc(a1-2)[GalNAc(a1-3)]Gal(b1-4)GlcNAc(b1-3)[Fuc(a1-2)[GalNAc(a1-3)]Gal(b1-4)GlcNAc(b1-6)]GalNAc
Procedure, shortened: as §1

[27] = target: Fuc(a1-2)[GalNAc(a1-3)]Gal(b1-4)GlcNAc(b1-6)GalNAc
Procedure, shortened: as §1

[28] = target: Fuc(a1-2)[GalNAc(a1-3)]Gal(b1-4)[Fuc(a1-3)]GlcNAc
Procedure, shortened: as §1

[29] = target: Fuc(a1-2)[GalNAc(a1-3)]Gal(b1-4)[Fuc(a1-3)]GlcNAc(b1-3)GalNAc
Procedure, shortened: as §1

[30] = target: Fuc(a1-2)[GalNAc(a1-4)]Gal(b1-4)GlcNAc
Procedure, shortened: as §1

[31] = target: Fuc(a1-2)[GalNAc(b1-3)]Gal
Procedure, shortened: as §1

Fuc(a1-3)GlcNAc = target: Fuc(a1-3)GlcNAc
Procedure, shortened: as §1

[32] = target: Fuc(a1-3)[Gal(b1-4)]Glc6S
Procedure, shortened: as §1

[33] = target: Fuc(a1-3)[Gal(b1-4)]GlcNAc
Procedure, shortened: as §1

[34] = target: Fuc(a1-3)[Gal(b1-4)]GlcNAc(b1-2)Man
Procedure, shortened: as §1

[35] = target: Fuc(a1-3)[Gal(b1-4)]GlcNAc(b1-2)Man(a1-3)[Fuc(a1-3)[Gal(b1-4)]GlcNAc(b1-2)Man(a1-6)]Man(b1-4)GlcNAc(b1-4)GlcNAc
Procedure, shortened: as §1

[36] = target: Fuc(a1-3)[Gal(b1-4)]GlcNAc(b1-2)Man(a1-3)[Fuc(a1-3)[Gal(b1-4)]GlcNAc(b1-2)Man(a1-6)]Man(b1-4)GlcNAc(b1-4)[Fuc(a1-6)]GlcNAc
Procedure, shortened: as §1

B1: HA-00510 (Pseudomonas aeruginosa), Q02V39_PSEAB (protein)
chain: GVPIVNIATPNGAGLSNNHFRDYNVGANGLILNNATGKTQGTQLGGIILGNPNLKGQAAQVILNQVTGGNRSTLAGYTEVAGQSARVIVANPHGITCQGCGFINTPRATLTTGKPIMDGQRLERFQVDGGDIVVEGAELNVGNLEQFDLITRSAKLNAKLYAKNLNIVTGRNDVQADSLQATPRAADGSEKPQLAIDSSALGGMYAGAIRLVGTEQGVGVKLAGDMAASGGDIRIDASGKLSLAQASSQGDLKIAAQAVELNGKTYAGGSAEIRSAEELVNRQS
- glycan array binding signal (z-score) [1]: -0.934
- glycan array binding signal (z-score) [2]: 0.894
- glycan array binding signal (z-score) [3]: 0.23
- glycan array binding signal (z-score) [4]: 0.902
- glycan array binding signal (z-score) [5]: 0.219
- glycan array binding signal (z-score) [6]: 0.057
- glycan array binding signal (z-score) [7]: 0.649
- glycan array binding signal (z-score) [8]: 1
- glycan array binding signal (z-score) [9]: 0.219
- glycan array binding signal (z-score) [10]: -0.448
- glycan array binding signal (z-score) [11]: 0.953
- glycan array binding signal (z-score) [12]: -0.374
- glycan array binding signal (z-score) [13]: 0.474
- glycan array binding signal (z-score) [14]: -0.159
- glycan array binding signal (z-score) [15]: 0.001
- glycan array binding signal (z-score) [16]: 2.45
- glycan array binding signal (z-score) [17]: -1.15
- glycan array binding signal (z-score) [18]: -0.409
- glycan array binding signal (z-score) [19]: -0.29
- glycan array binding signal (z-score) [20]: -0.439
- glycan array binding signal (z-score) [21]: -0.079
- glycan array binding signal (z-score) [22]: 0.019
- glycan array binding signal (z-score) [23]: -0.94
- glycan array binding signal (z-score) [24]: -0.3
- glycan array binding signal (z-score) [25]: -0.573
- glycan array binding signal (z-score) [26]: -0.232
- glycan array binding signal (z-score) [27]: -0.493
- glycan array binding signal (z-score) [28]: -0.066
- glycan array binding signal (z-score) [29]: -0.355
- glycan array binding signal (z-score) [30]: 0.364
- glycan array binding signal (z-score) [31]: 1.12
- glycan array binding signal (z-score) (Fuc(a1-3)GlcNAc): 0.219
- glycan array binding signal (z-score) [32]: -0.423
- glycan array binding signal (z-score) [33]: -0.22
- glycan array binding signal (z-score) [34]: -0.182
- glycan array binding signal (z-score) [35]: 0.759
- glycan array binding signal (z-score) [36]: 0.246
